Data from article PMC7336658.
Results are given in words; binding and its absence hold for the method and conditions named. In cells and extracts the contact can be indirect. Some results given as binding are weak or reduced against the parent protein; the word gives no strength.

Sequences of proteins named here, by UniProt entry; tags and fusion partners are left off.
UniProt P31273: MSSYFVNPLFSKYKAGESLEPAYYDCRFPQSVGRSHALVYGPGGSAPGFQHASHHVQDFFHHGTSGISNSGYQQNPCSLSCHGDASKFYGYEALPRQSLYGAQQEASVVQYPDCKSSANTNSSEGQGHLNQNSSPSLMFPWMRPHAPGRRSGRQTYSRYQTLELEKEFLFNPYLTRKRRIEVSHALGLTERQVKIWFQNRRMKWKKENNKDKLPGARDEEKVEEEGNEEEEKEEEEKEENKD
UniProt P56178: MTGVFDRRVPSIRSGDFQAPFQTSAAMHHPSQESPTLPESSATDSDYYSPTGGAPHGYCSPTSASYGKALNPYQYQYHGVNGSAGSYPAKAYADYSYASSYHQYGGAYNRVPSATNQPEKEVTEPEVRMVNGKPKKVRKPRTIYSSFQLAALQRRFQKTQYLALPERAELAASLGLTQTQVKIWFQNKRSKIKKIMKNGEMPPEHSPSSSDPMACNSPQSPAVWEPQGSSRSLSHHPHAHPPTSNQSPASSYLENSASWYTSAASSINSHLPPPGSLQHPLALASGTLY

What was measured:
Experiment in all cases: co-IP; SCAP lysates (IP lysis buffer, protease inhibitor cocktail); specific primary antibody (DLX5 or HOXC8) 4 h, protein A/G Sepharose overnight at 4 °C; beads washed three times with lysis buffer; Western blot; cells with over-expression or shRNA knock-down of DLX5 or HOXC8
[1] = target: HOXC8 (Homeobox C8), over-expressed in SCAPs (human) (UniProt P31273)
[2] = target: DLX5 (Distal-less homeobox 5), endogenous in SCAPs (human (endogenous in SCAPs)) (UniProt P56178)
[3] = target: DLX5 (Distal-less homeobox 5), over-expressed in SCAPs (human) (UniProt P56178)

Row | binding [1] | binding [2] | binding [3] | Substance
1 | binds |  |  | DLX5 (Distal-less homeobox 5), endogenous in SCAPs (from UniProt P56178 1-289)
2 |  | binds | binds | HOXC8 (Homeobox C8), endogenous in SCAPs (from UniProt P31273 1-242)
